Source: article PMC9835321
These are yes or no findings as the source states them, for the method shown. In cells and extracts the contact can be indirect. Some entries that bind do so weakly or less than the wild type.

Amino acid sequences for entries named in this document (tags omitted).
UniProt P38398: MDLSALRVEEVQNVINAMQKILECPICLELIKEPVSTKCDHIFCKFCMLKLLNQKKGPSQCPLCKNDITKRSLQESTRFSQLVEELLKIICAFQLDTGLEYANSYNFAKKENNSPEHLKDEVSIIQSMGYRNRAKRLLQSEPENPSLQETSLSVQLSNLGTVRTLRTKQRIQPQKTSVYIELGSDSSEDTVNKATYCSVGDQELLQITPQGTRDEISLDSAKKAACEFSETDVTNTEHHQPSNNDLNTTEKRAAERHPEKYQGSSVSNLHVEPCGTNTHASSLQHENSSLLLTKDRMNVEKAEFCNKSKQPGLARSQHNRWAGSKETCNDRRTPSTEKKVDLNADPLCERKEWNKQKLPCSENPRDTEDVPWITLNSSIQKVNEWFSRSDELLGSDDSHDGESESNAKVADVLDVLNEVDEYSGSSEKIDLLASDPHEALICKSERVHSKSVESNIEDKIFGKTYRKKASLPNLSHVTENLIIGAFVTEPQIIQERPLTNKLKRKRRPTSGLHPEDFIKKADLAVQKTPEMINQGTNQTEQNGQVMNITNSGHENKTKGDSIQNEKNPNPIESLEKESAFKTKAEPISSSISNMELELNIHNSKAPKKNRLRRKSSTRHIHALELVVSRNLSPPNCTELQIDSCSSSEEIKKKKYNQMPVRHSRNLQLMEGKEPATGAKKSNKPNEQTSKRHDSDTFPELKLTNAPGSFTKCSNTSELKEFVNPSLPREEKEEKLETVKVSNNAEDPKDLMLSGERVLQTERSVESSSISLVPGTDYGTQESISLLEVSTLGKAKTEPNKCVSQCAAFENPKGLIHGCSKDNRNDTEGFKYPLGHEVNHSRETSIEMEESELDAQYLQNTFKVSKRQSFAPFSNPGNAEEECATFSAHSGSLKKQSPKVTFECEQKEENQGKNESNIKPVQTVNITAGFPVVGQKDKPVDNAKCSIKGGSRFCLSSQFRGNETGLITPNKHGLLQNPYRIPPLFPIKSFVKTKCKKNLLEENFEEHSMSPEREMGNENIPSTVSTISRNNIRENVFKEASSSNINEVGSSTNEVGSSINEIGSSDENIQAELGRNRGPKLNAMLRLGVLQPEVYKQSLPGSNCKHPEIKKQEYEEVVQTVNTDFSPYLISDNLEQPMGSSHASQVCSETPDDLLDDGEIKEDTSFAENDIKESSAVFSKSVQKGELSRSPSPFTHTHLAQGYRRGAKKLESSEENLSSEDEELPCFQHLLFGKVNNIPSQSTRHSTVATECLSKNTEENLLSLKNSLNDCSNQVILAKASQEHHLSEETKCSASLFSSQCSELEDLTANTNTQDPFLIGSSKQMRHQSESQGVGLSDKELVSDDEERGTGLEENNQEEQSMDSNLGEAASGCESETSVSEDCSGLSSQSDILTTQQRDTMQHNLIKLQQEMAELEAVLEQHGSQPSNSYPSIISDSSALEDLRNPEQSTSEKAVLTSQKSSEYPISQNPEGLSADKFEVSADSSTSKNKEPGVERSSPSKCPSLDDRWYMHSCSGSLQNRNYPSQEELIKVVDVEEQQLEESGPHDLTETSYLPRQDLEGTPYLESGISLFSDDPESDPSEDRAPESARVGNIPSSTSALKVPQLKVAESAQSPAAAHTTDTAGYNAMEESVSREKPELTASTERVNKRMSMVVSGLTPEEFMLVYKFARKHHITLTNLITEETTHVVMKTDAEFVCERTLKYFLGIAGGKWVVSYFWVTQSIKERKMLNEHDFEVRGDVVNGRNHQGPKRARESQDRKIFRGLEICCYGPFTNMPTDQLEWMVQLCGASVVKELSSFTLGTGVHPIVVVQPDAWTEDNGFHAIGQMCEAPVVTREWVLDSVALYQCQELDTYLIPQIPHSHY

Biological target: Breast Cancer 1 (BRCA1) protein (human (endogenous in CLL cells)) (UniProt P38398)
Test: co-IP; CLL cells; IgG as the negative control; which protein was precipitated and which was blotted is not stated

B1: Cytidine triphosphate synthase 2 (enzyme, UniProt Q9NRF8 1-586)
chain: MKYILVTGGVISGIGKGIIASSIGTILKSCGLRVTAIKIDPYINIDAGTFSPYEHGEVFVLNDGGEVDLDLGNYERFLDINLYKDNNITTGKIYQHVINKERRGDYLGKTVQVVPHITDAVQEWVMNQAKVPVDGNKEEPQICVIELGGTIGDIEGMPFVEAFRQFQFKAKRENFCNIHVSLVPQLSATGEQKTKPTQNSVRALRGLGLSPDLIVCRSSTPIEMAVKEKISMFCHVNPEQVICIHDVSSTYRVPVLLEEQSIVKYFKERLHLPIGDSASNLLFKWRNMADRYERLQKICSIALVGKYTKLRDCYASVFKALEHSALAINHKLNLMYIDSIDLEKITETEDPVKFHEAWQKLCKADGILVPGGFGIRGTLGKLQAISWARTKKIPFLGVCLGMQLAVIEFARNCLNLKDADSTEFRPNAPVPLVIDMPEHNPGNLGGTMRLGIRRTVFKTENSILRKLYGDVPFIEERHRHRFEVNPNLIKQFEQNDLSFVGQDVDGDRMEIIELANHPYFVGVQFHPEFSSRPMKPSPPYLGLLLAATGNLNAYLQQGCKLSSSDRYSDASDDSFSEPRIAELEIS
Question: For B1, which binding is on record?
Answer: binds
